The assay has as its target T1, Endogenous dog haptoglobin (glucocorticoid enhanced, in Beagle plasma) (dog (endogenous in Beagle plasma)) (UniProt P19006).
T1 sequence 1: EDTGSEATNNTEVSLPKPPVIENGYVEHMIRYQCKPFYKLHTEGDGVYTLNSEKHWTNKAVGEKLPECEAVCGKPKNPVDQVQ
T1 sequence 2: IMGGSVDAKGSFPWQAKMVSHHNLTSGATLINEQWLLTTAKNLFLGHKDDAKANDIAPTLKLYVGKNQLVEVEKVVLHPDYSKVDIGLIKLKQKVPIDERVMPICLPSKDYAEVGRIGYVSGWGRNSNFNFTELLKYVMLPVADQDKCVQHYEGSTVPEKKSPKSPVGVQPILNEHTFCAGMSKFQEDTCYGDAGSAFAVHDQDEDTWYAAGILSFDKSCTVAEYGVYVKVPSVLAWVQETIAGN
Kind of assay: SEC; plasma (50 uL) of prednisone pre-treated Beagle dogs after a 4 g i.v. bolus of purified Hb; Hb bound to endogenous dog Hp in vivo; BioSep-SEC-S3000, peak areas of Hb and Hb:Hp at 405 nm; only the binder purified.

Protein sequences, listed by entry. Tags and fused reporters are not part of them. Lines headed by an entry give the natural chain unless they say otherwise; changes in a name come on top.
UniProt P60529: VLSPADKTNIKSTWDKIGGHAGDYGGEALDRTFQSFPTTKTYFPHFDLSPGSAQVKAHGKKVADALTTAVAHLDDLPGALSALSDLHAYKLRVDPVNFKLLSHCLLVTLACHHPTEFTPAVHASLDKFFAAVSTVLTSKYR

No constants are given. Whether binding was seen depends on the method and setting. Some results given as binding are weak or reduced against the parent protein; the word gives no strength. Sequences can lack the tags named with a protein.

As to “Dog hemoglobin (from UniProt P60529 1-141; P60524 1-146)”, the binding entry is recorded as “binds”.

Values taken from article PMC4191077.
